Like-named read-outs stand apart in the source and are kept apart here. The exact form of at least one protein or probe is not confirmed. For some of these results: A negative result means that nothing was seen under these conditions.
Experiments:
Test in all cases: EMSA
[1] = system: His6-S-HsfB2a
[2] = system: His6-S-HsfB1
[3] = molecular target: GST-S-HsfA2 (UniProt J7G1E7)

Sequence | binding result [1] | binding result [2] | binding result ([3]; weakened by unlabelled HRE competitor) | binding result [3]
GAAGAAGGAAGAAGGAAGAAG (double strand) [3xHRE probe] | no binding | binds | binds | –
TCCTCCTTCCTCCTTCCTCCT (double strand) [3xmHRE probe] | – | – | – | no binding

From article doi:10.1101/2024.06.03.597204
